This is an account of results in publication doi:10.1101/317354.

Sequences of proteins named here, by UniProt entry; tags and fusion partners are left off. A change or cut given only in a name is not applied to a line headed by its entry.
UniProt P03206: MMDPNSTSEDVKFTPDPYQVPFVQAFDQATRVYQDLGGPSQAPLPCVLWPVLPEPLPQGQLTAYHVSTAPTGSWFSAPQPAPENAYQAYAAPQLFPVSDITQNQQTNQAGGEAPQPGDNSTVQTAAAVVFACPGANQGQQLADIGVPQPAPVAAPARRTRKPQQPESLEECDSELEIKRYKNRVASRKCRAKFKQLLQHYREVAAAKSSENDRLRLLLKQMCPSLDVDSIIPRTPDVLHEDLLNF
UniProt O60264: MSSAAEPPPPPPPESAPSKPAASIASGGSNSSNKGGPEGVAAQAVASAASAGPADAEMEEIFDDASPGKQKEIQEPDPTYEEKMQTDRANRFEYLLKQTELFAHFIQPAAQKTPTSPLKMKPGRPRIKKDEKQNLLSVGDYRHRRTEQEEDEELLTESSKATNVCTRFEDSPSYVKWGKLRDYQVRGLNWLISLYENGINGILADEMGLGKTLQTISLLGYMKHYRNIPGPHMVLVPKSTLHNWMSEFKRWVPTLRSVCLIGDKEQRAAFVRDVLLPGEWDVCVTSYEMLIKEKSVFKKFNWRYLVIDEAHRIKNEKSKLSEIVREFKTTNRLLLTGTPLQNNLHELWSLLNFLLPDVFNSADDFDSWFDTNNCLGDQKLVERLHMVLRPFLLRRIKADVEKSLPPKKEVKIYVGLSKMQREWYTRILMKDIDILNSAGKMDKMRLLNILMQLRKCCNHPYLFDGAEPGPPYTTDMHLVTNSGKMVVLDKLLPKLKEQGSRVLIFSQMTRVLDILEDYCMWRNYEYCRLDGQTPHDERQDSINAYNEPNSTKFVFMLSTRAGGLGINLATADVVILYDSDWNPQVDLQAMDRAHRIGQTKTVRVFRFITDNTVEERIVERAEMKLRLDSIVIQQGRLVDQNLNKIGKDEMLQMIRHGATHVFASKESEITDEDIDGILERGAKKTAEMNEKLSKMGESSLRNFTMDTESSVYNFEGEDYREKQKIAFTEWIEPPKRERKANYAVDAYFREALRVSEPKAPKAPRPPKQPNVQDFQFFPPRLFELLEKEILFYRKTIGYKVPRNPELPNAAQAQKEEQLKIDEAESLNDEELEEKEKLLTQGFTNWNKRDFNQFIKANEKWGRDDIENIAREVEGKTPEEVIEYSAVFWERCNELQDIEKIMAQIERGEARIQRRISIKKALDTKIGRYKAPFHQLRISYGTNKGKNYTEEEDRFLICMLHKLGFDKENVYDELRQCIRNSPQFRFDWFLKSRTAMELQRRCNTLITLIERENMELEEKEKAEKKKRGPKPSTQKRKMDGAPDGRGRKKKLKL
UniProt Q9ULG1: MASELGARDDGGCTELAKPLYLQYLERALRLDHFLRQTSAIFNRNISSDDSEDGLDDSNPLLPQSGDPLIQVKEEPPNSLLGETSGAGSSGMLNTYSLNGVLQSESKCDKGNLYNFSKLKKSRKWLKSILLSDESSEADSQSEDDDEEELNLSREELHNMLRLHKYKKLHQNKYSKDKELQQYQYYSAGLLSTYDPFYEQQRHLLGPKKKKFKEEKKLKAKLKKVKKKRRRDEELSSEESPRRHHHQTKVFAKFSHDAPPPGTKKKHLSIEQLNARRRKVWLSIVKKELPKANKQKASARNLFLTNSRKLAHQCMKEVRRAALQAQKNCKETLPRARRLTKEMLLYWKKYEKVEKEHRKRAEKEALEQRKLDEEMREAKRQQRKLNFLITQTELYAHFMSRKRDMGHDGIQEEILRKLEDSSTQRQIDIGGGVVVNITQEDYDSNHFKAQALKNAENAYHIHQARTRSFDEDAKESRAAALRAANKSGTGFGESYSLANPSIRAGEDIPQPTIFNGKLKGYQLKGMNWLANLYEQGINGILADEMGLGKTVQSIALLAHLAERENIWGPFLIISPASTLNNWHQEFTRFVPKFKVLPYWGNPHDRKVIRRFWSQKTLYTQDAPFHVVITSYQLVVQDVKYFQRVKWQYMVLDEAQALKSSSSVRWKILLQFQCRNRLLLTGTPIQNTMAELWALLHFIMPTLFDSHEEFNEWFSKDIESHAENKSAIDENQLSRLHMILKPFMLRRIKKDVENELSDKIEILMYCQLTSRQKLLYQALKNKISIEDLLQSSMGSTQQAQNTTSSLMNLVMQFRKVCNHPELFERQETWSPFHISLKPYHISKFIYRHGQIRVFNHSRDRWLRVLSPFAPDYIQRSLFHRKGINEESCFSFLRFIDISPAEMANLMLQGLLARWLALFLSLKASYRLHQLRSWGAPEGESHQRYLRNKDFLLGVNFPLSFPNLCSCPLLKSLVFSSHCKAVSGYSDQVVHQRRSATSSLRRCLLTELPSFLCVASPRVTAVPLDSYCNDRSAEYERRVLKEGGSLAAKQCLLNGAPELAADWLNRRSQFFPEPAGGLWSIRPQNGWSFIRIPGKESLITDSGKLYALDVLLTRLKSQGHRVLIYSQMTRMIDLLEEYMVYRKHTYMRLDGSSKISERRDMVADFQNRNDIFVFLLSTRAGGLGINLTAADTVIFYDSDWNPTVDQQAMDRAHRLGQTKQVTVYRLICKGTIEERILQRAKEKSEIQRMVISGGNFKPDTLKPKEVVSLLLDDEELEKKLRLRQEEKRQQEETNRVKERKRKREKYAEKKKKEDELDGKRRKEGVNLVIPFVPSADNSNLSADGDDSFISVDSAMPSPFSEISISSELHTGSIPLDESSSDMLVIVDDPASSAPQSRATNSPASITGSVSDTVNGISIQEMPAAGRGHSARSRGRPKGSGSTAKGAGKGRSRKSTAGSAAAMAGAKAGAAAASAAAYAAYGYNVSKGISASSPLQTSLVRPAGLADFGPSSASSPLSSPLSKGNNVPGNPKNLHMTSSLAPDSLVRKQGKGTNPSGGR
UniProt Q14839: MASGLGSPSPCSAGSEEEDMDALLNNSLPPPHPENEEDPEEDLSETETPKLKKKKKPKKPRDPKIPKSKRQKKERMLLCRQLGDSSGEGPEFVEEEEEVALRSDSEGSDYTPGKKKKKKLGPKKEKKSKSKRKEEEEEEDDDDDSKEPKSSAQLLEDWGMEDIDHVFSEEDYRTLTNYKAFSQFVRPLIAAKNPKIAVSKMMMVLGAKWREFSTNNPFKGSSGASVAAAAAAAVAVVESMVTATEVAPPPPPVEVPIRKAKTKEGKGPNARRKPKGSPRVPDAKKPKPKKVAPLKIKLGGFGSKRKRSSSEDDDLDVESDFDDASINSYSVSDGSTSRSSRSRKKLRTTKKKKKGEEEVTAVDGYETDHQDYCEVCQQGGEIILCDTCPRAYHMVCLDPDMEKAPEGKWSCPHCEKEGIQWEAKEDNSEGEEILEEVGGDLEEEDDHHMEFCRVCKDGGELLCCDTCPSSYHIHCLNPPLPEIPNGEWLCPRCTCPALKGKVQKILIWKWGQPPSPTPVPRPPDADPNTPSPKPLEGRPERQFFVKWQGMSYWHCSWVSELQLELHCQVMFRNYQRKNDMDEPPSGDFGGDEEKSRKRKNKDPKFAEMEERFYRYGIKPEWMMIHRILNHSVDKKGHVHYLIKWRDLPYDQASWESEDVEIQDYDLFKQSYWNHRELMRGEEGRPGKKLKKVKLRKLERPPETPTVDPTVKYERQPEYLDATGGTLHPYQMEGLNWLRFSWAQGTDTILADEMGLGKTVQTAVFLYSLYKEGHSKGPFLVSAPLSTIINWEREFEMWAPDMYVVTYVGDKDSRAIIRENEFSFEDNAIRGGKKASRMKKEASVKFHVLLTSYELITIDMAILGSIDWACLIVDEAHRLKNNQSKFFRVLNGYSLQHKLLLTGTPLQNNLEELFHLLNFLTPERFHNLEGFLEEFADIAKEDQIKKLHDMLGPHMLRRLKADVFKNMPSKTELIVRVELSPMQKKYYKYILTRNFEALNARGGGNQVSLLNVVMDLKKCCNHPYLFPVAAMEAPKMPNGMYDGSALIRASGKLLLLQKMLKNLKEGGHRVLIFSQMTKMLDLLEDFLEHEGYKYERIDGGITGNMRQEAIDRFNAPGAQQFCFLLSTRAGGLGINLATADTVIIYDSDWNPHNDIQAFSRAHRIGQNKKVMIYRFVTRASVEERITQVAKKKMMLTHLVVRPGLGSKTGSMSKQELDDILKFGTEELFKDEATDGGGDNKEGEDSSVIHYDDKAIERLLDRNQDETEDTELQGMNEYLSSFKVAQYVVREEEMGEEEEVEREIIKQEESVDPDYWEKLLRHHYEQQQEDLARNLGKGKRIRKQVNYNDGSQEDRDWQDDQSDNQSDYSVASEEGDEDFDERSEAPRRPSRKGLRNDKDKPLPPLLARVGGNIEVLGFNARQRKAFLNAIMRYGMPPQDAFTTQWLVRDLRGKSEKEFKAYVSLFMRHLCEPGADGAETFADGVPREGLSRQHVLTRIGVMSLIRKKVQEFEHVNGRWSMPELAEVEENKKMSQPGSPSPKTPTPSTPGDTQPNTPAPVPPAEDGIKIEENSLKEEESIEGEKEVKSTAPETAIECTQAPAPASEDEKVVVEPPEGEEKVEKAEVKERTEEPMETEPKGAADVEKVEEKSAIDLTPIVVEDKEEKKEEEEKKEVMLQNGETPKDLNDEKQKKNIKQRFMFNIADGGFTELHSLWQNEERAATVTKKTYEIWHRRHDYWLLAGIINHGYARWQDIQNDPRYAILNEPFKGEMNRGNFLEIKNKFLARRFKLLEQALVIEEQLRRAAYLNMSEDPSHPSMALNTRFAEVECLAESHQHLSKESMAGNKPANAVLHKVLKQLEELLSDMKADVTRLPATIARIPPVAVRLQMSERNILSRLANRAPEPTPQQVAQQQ

No constants are given. Whether binding was seen depends on the method and setting. In cells and extracts the contact can be indirect. Some entries that bind do so weakly or less than the wild type.

What all share (test): co-IP
Assay [1] addresses Strep-tagged BZLF1 bZIP domain (aa175-236) (Epstein-Barr virus) (UniProt P03206).
The target of assay [2] is Strep-tagged BZLF1 full-length protein (aa1-245) (Epstein-Barr virus) (UniProt P03206).
In assay [3] the target is GFP-tagged chromatin remodeler ATPase subunit SNF2h (UniProt O60264).
Assay [4] deals with GFP-tagged chromatin remodeler ATPase subunit INO80 (human) (UniProt Q9ULG1).

As to “SNF2h, catalytic ATPase subunit of ISWI family remodelers (endogenous, Raji) (from UniProt O60264 1-1052)”, the binding entry in assay [1] and in assay [2] was “binds” in each case. Regarding “CHD4 (endogenous, Raji) (from UniProt Q14839 1-1912)”, the binding entry in assay [2] is given as “no binding”. Regarding “BZLF1 aa1-236 with FLAG- and tandem Strep-tag (HEK293) (from UniProt P03206 1-236) (domain or fragment)”, the binding entry in assay [3] is listed as “binds”.

With “BZLF1 aa149-245 with FLAG- and tandem Strep-tag (HEK293) (from UniProt P03206 149-245) (domain or fragment)”, the binding entry in assay [3] is “binds”. On the same count and under the same terms, for “BZLF1 aa175-236 with FLAG- and tandem Strep-tag (HEK293) (from UniProt P03206 175-236) (domain or fragment)” the value was “binds”. Consider “BZLF1 aa1-245 with FLAG- and tandem Strep-tag (HEK293) (from UniProt P03206 1-245)”, for which the binding entry in assay [4] and in assay [3] was “binds” in each case.
